From patent US20190161553A1
Results are given in words; binding and its absence hold for the method and conditions named. Some entries that bind do so weakly or less than the wild type. For some assays here: Tags and fused reporters may be left off the sequences shown.

Sequences of proteins named here, by UniProt entry; tags and fusion partners are left off. A change or cut given only in a name is not applied to a line headed by its entry.
UniProt Q02223: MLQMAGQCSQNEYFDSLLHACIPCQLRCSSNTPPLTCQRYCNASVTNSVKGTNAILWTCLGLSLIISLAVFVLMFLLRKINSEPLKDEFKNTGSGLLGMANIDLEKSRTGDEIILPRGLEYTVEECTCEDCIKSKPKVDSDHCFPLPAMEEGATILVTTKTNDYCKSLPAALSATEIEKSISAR

B1: BCMA-26 scFv (scFv)
scFv: EVQLVESGGGLVKPGGSLRLSCAASGFTFSDYYMSWIRQAPGKGLEWVSYISSSGSTIYYADSVKGRFTISRDNAKNSLYLQMNSLRAEDTAVYYCAKVDGPPSFDIWGQGTMVTVSSGGGGSGGGGSGGGGSSYVLTQPPSVSVAPGQTARITCGANNIGSKSVHWYQQKPGQAPMLVVYDDDDRPSGIPERFSGSNSGNTATLTISGVEAGDEADYFCHLWDRSRDHYVFGTGTKLTVL
B2: BCMA-55 scFv-Fc fusion protein (Fc fusion, not shown: a dimerising Fc or GST)
chain: QSALTQPASVSASPGQSIAISCTGTSSDVGWYQQHPGKAPKLMIYEDSKRPSGVSNRFSGSKSGNTASLTISGLQAEDEADYYCSSNTRSSTLVFGGGTKLTVLGSRGGGGSGGGGSGGGGSLEMAEVQLVQSGAEMKKPGASLKLSCKASGYTFIDYYVYWMRQAPGQGLESMGWINPNSGGTNYAQKFQGRVTMTRDTSISTAYMELSRLRSDDTAMYYCARSQRDGYMDYWGQGTLVTVSS
B3: BCMA-9 scFv (scFv)
scFv: EVQLVQSGGGLVKPGGSLRLSCAASGFTFSDYYMSWIRQAPGKGLEWVSYISSSGSTIYYADSVKGRFTISRDNAKNSLYLQMNSLRAEDTAVYYCARVDGDYVDDYWGQGTLVTVSSGGGGSGGGGSGGGGSSYELTQPPSVSVAPGQTARVTCGANNIGSKSVHWYQQKPGQAPMLVVYDDDDRPSGIPERFSGSNSGNTATLTISGVEAGDEADYFCHVWDRSRDHYVFGTGTKLTVL
B4: BCMA-44 scFv (scFv)
scFv: EVQLVQSGGGLVQPGRSLRLSCTASGFTFGDYAMSWFRQAPGKGLEWVGFIRSKAYGGTTEYAASVKGRFTISRDDSKSIAYLQMNSLKTEDTAVYYCAAWSAPTDYWGQGTLVTVSSGGGGSGGGGSGGGGSDVVMTQSPDSLAVSLGERATINCKSSQNLLYSSNNKNYLAWYQQKPGQPPKLLIYWASTRESGVPDRFSGSGSGTDFTLTISSLQAEDVAVYYCQQYYSSPYTFGQGTKLEIK
B5: BCMA-40 scFv (scFv)
scFv: EVQLVESGGGLVKPGGSLRLSCAASGFTFSDYYMSWIRQAPGKGLEWVSYISSSGSTIYYADSVKGRFTISRDNAKNSLYLQMNSLRAEDTAVYYCAKVDGDYTEDYWGQGTLVTVSSGGGGSGGGGSGGGGSQSALTQPASVSGSPGQSITISCTGSSSDVSKYNLVSWYQQPPGKAPKLIIYDVNKRPSGVSNRFSGSKSGNTATLTISGLQGDDEADYYCCSYGGSRSYVFGTGTKLTVL
B6: BCMA-41 scFv (scFv)
scFv: QVQLVQSGGGLVKPGGSLRLSCAASGFTFSDYYMSWIRQAPGKGLEWVSYISSSGNTIYYADSVKGRFTISRDNAKNSLYLQMNSLRAEDTAVYYCAKVDGDYVDDYWGQGTLVTVSSGGGGSGGGGSGGGGSQPVLTQPPSVSGTPGQRVTIPCSGSSSNIGGNSVDWFQEVPGTAPKLLIYANDRRPSGVPDRFSGTKSGTSASLAIRGLQSDDDAHYYCESWDDALNGHVFGGGTKLTVL
B7: BCMA-42 scFv (scFv)
scFv: EVQLLESGGGLVQPGRSLRLSCTASGFTFGDYAMSWFRQAPGKGLEWVGFIRSKAYGGTTEYAASVKGRFTISRDDSKSIAYLQMNSLKTEDTAVYYCAAWSAPTDYWGQGTLVTVSSGGGGSGGGGSGGGGSDIQMTQSPSLVSASVGDRVTITCRASQGIGNGLAWYQQKPGKAPKLLLFAASRLESGVPSRFSGSRSGTDYTLTISSLQPEDVATYYCQQYVEDALTFGGGTKVDIK
B8: BCMA-38 scFv (scFv)
scFv: QVQLVQSGGGLVKPGGSLRLSCAASGFTFSDYYMSWIRQAPGKGLEWVSYISSSGSTIYYADSVKGRFTISRDNAKNSLYLQMNSLRAEDTAVYYCARVDGDYVDDYWGQGTLVTVSSGGGGSGGGGSGGGGSQAVLTQEPSLTVSPGGTVTLTCGSSTGAVTNGHSPYWFQQKPGQAPRTLIYDTNNRHSWTPARFSGSLLGGKAALTLSGAQPEDEADYFCLLSYSDARLAFGGGTKLTVL
B9: BCMA-45 scFv (scFv)
scFv: QVQLVQSGGGLVQPGRSLRLSCTASGFTFGDYAMSWFRQAPGKGLEWVGFIRSKAYGGTTEYAASVKGRFTISRDDSKSIAYLQMNSLKTEDTAVYYCAAWSAPTDYWGQGTLVTVSSGGGGSGGGGSGGGGSAIRMTQSPSSLSASVGDRVTITCRASQGIGRSLAWYKQKPGGVPQLLIHDASSLRSGVPSRFSGSGSGTEFTLTISGVQSEDSATYHCQQLNGYPWTFGQGTKVDIK
B10: BCMA-46 scFv (scFv)
scFv: QVQLVQSGGGLVQPGRSLRLSCTASGFTFGDYAMSWFRQAPGKGLEWVGFIRSKAYGGTTEYAASVKGRFTISRDDSKSIAYLQMNSLKTEDTAVYYCAAWSAPTDYWGQGTLVTVSSGGGGSGGGGSGGGGSDIVMTQSPDSLVVSLGERATINCKSSQSVLHSSNNKNYLAWYQQKPGQPPKLLIYWASTRESGVPDRFSGSGSGTDFTLTISSLQAEDVAVYYCQQYYTTPLTFGGGTKVEIK
B11: BCMA-51 scFv (scFv)
scFv: EVQLVQSGGGLVQPGRSLRLSCTASGFTFGDYAMSWFRQAPGKGLEWVGFIRSKAYGGTTEYAASVKGRFTISRDDSKSIAYLQMNSLKTEDTAVYYCAAWSAPTDYWGQGTLVTVSSGGGGSGGGGSGGGGSAIQLTQSPSTLSASVGDRVAITCRASQNIGDWLAWYQQKPGKAPKLLIFGASILESGVPSRFSGSGSGTDFTLTISSLQPEDVAVYYCQKYDGAPPWTFGQGTKVEIK
B12: BCMA-55-LS CAR (anti-BCMA chimeric antigen receptor with BCMA-55 scFv, long spacer, CD28 transmembrane domain, 4-1BB and CD3-zeta endodomains) (protein)
chain: QSALTQPASVSASPGQSIAISCTGTSSDVGWYQQHPGKAPKLMIYEDSKRPSGVSNRFSGSKSGNTASLTISGLQAEDEADYYCSSNTRSSTLVFGGGTKLTVLGSRGGGGSGGGGSGGGGSLEMAEVQLVQSGAEMKKPGASLKLSCKASGYTFIDYYVYWMRQAPGQGLESMGWINPNSGGTNYAQKFQGRVTMTRDTSISTAYMELSRLRSDDTAMYYCARSQRDGYMDYWGQGTLVTVSSESKYGPPCPPCPAPPVAGPSVFLFPPKPKDTLMISRTPEVTCVVVDVSQEDPEVQFNWYVDGVEVHNAKTKPREEQFQSTYRVVSVLTVLHQDWLNGKEYKCKVSNKGLPSSIEKTISKAKGQPREPQVYTLPPSQEEMTKNQVSLTCLVKGFYPSDIAVEWESNGQPENNYKTTPPVLDSDGSFFLYSRLTVDKSRWQEGNVFSCSVMHEALHNHYTQKSLSLSLGKMFWVLVVVGGVLACYSLLVTVAFIIFWVKRGRKKLLYIFKQPFMRPVQTTQEEDGCSCRFPEEEEGGCELRVKFSRSADAPAYQQGQNQLYNELNLGRREEYDVLDKRRGRDPEMGGKPRRKNPQEGLYNELQKDKMAEAYSEIGMKGERRRGKGHDGLYQGLSTATKDTYDALHMQALPPR

What follows are binders tested against human BCMA residues 1-54 (linear and conformational CLIPS peptide libraries) (human) (assay: CLIPS peptide-array ELISA).

binding | Binder
binds | B1
binds | B2
binds | B3

These binders were tested against human BCMA (B-cell maturation antigen) on the cell surface (human) (UniProt Q02223) (assay: flow cytometry, BCMA-expressing HEK293 vs control cells).

binding | Binder
binds | B4
binds | B5
binds | B6
binds | B7
binds | B8
binds | B9
binds | B3
binds | B10
binds | B11

The binders below were run against BCMA-Fc (soluble human BCMA fused at its C-terminus to an Fc region of IgG) (human) (UniProt Q02223) (assay: flow cytometry of CAR-transduced CD4+ and CD8+ T cells stained with recombinant BCMA-Fc).

binding | Binder
binds | B12

What follows are binders tested against human BCMA (B-cell maturation antigen) on the cell surface (human) (UniProt Q02223) (assay: membrane proteome array (Retrogenix), scFv-Fc on HEK293 cells expressing human extracellular proteins).

binding | Binder
binds | B2
